PubChem BioAssay AID1259298 | Sanger Institute – 2017
In all, the deposit lists 794 reagents; shown is a random part of them. Over the whole deposit, 20 (2.5%) are marked active. 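Calls rest only on the knock-down-alone score; drug synergy scores played no part in them.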 No viability above 1 is reported: the scale is capped. Further read-outs or replicates are left out here. Not stated in the record: the amount of reagent, the time to read-out.

- Screen: 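Kinases whose loss strengthens killing by BYL719, cetuximab or trametinib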 (primary screen)
- Cell system: HT55 human colorectal cancer cell line
- Knock-down reagent: siRNA pool against human genes
- Treatment: anchor drug BYL719 1 µM, cetuximab 5 µg/ml or trametinib 10 nM, or DMSO vehicle alone
- Measurement: 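Mean viability over replicates versus non-targeting pool, a robust z-score without drug, and per-drug synergy scores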
- Direction: robust z-score, knock-down alone: higher = more cells remaining; low means essential gene; viability vs control pool, no drug: higher = more viable cells
- Units: viability vs control pool, no drug in fraction
- Rule for the call: 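a gene counts as essential if its knock-down-alone robust z-score falls under -3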
- Calls: active = essential (knock-down alone); inactive = no change alone

{"Gene": "EPHB3 (GeneID 2049)", "robust z-score, knock-down alone": -0.771, "viability vs control pool, no drug": 0.894, "outcome": "inactive"}
{"Gene": "THNSL1 (GeneID 79896)", "robust z-score, knock-down alone": -0.167, "viability vs control pool, no drug": 0.942, "outcome": "inactive"}
{"Gene": "RET (GeneID 5979)", "robust z-score, knock-down alone": 0.58, "viability vs control pool, no drug": 1, "outcome": "inactive"}
{"Gene": "EPHB4 (GeneID 2050)", "robust z-score, knock-down alone": 0.58, "viability vs control pool, no drug": 1, "outcome": "inactive"}
{"Gene": "INSRR (GeneID 3645)", "robust z-score, knock-down alone": -1.87, "viability vs control pool, no drug": 0.808, "outcome": "inactive"}

Next part, starting with the last 2 of the part before.
{"Gene": "EPHB4 (GeneID 2050)", "robust z-score, knock-down alone": 0.58, "viability vs control pool, no drug": 1, "outcome": "inactive"}
{"Gene": "INSRR (GeneID 3645)", "robust z-score, knock-down alone": -1.87, "viability vs control pool, no drug": 0.808, "outcome": "inactive"}
{"Gene": "PRKCG (GeneID 5582)", "robust z-score, knock-down alone": 0.58, "viability vs control pool, no drug": 1, "outcome": "inactive"}
{"Gene": "GRK4 (GeneID 2868)", "robust z-score, knock-down alone": -1.39, "viability vs control pool, no drug": 0.846, "outcome": "inactive"}
{"Gene": "MAST2 (GeneID 23139)", "robust z-score, knock-down alone": 0.58, "viability vs control pool, no drug": 1, "outcome": "inactive"}
{"Gene": "PFKFB4 (GeneID 5210)", "robust z-score, knock-down alone": 0.58, "viability vs control pool, no drug": 1, "outcome": "inactive"}
{"Gene": "PIP4K2B (GeneID 8396)", "robust z-score, knock-down alone": -0.0499, "viability vs control pool, no drug": 0.951, "outcome": "inactive"}
{"Gene": "PRKD2 (GeneID 25865)", "robust z-score, knock-down alone": 0.58, "viability vs control pool, no drug": 1, "outcome": "inactive"}
{"Gene": "CSNK1G2 (GeneID 1455)", "robust z-score, knock-down alone": 0.58, "viability vs control pool, no drug": 1, "outcome": "inactive"}
